Test results taken from PubChem BioAssay AID1347423 (Functional Genomics Laboratory (NCATS/FGL), 2020).
About 210 (0.4%) of roughly 52,000 sequences were called active.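 How the source made its calls: active means gene whose silencing raises cell survival under the drug, median off-target-corrected z-score across its silencing RNAs 2 or more; inactive means the rest.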 The list shows a part of the results.

Assay: Resistance to Poly (ADP-Ribose) Polymerase inhibitor: Gene Identification via Genome-wide siRNA Screen
Conditions: mouse BRCA2 R2336H ES cells, olaparib, CellTiter-Glo viability; active compounds read high
Procedure, shortened: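 Genome-wide siRNA screen (3 siRNAs/gene, 20 nM) in mouse ES cells carrying hypomorphic BRCA2 R2336H; olaparib 500 nM added 48 h post-transfection, CellTiter-Glo viability 72 h later. Normalized to plate-median negative control; MAD z-scores, gene median, seed-adjusted.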

Row | Sequence | z-score
1 | GGAGAUUCUGAUGAAGAAGTT against Hbld2 | inactive: -0.162
2 | GGCGAUAGUGUCUAAGAAATT against 1110004E09Rik | inactive: -0.337
3 | CGUGCUCAUUUAGGUUAUATT against Zfp57 | inactive: 1.38
4 | GGUCAUCCUUUUUCAGUACTT against Lhx6 | inactive: 1.09
5 | GGCUGUUUUGUGAACCUAATT against Olfr481 | inactive: -0.634
6 | GGAAUCCUAGGUUGCAUUATT against Mycbpap | inactive: -2.29
7 | GAUGGUAGAGUCUACAUCATT against Hcst | inactive: 0.671
8 | GCAACAUGAGGUAUAUUGGTT against Sema4d | inactive: -0.211
9 | GGAUGCAUGGCCCAACUUUTT against Olfr915 | inactive: -0.92
10 | GGACAUCUUGUGUCUGUGCTT against Reg3g | inactive: -2.1
11 | GUUGCUGUAAACCCUGCUGTT against Krtap5-4 | inactive: -0.692
12 | GGAACAUAUGCAGAAUUUATT against Bai3 | inactive: 1.87
13 | CCUGUCCUACCAAAGUCUUTT against 1810020E01Rik | inactive: -0.419
14 | CCAUUUUCGGCAAUGCGCUTT against Adra2b | inactive: -0.872
15 | GGUAUUUGAUGCUCGGGACTT against Nos3 | inactive: -1.7
16 | GCAACCAUCUGAUGAUUAATT against 4921523A10Rik | inactive: -0.45
17 | GGUUCUACGAGUAAAAAGCTT against G22p1 | inactive: 0.291
18 | GCCAUAUCAACCGUAUUGGTT against Prosapip1 | inactive: -0.808
19 | GGCUUUUAUAGCUAAGGUUTT against 2600017H08Rik | inactive: -1.21
20 | GGCAGUACUCUUCCUCACUTT against A230078I05Rik | inactive: 1.16
21 | GGUUUUCACUAUUUCAACUTT against Olfr187 | inactive: 1.32
22 | GGUGCUUGUGGGUAACAAGTT against Rab33a | inactive: -2.45
23 | GCCUCAUGGCUUAACUUUGTT against Acads | inactive: -0.416
24 | GGGAACACUGUUGUUCUUGTT against Sprr3 | inactive: -0.51
25 | GUGAUUGAUAUUGUUCGAGTT against Pip | inactive: -0.534
26 | GAAACGGCAGAUUGCUGCUTT against V2r12 | inactive: -1.21

Row | Sequence | z-score
27 | GGACACUAUAAGAAAGGAATT against Fnta | inactive: -0.871
28 | GGUUAACCUGAGAAAAAUGTT against Mkrn1 | inactive: 0.0533
29 | AAGAAUACUCAGAUCAGUUTT against Magee2 | inactive: -0.405
30 | GGUCUAGCUCUGAAACAUCTT against Pms2 | inactive: 0.304
31 | GGAAGAAAUGUCAUCACAATT against Heph | inactive: -0.477
32 | GCCUAGGGAGGUGUAGAAUTT against Marveld1 | inactive: -1.39
33 | GCCACACAUAGGAACCAGUTT against Bat5 | inactive: -0.927
34 | GGACUCUAGUUCUUCGUUUTT against Hist1h1c | inactive: -1.02
35 | CGGUAAACUGGUUUUACUUTT against BC087945 | inactive: 0.245
36 | CCAAACAACCAGCUAAUAUTT against A930039G15Rik | inactive: -1.1
37 | GGAUUUCUACCAGCUCGUGTT against Pop5 | inactive: -0.036
38 | GCUCCUAAAAGAACAGUCGTT against Cog3 | inactive: -2.19
39 | GAAUUUUUCAGCUCUGUUUTT against Tas2r117 | inactive: 0.168
40 | GGCCAUCUUUGUUUAAAACTT against Ttc5 | inactive: 0.666
41 | GGACGUGUGCCAGACUAAATT against Egfl6 | inactive: -0.753
42 | GGGAAGUUAAUUGAGAUCCTT against D7Ertd156e | inactive: 1.36
43 | GGAAGAGGGCAAAAAUGGCTT against 4933405A16Rik | inactive: 1.5
44 | GCGAGUGGAACAGGAAUAUTT against BC026370 | inactive: -0.318
45 | CCAAAAAAUAGUCCGGUUGTT against LOC238829 | inactive: -0.436
46 | GGACGUAUCUUCUUUAAGATT against 1500034J20Rik | inactive: 0.214
47 | GCCUAUUGGGUCUACCUCCTT against 1700013L23Rik | inactive: 1.28
48 | CGGCGAGGAGAAGAUAAAATT against 2210415M20Rik | inactive: 0.341
49 | GGUGGUAUCGGUUUUCUACTT against Olfr1509 | inactive: -0.102
50 | GGGAUCCAUCCUCAUCUCATT against Oas1h | inactive: -0.278
51 | GGCAAGAAUCAAGGAGAGATT against Nek1 | inactive: 1.44
52 | GGAUUAUGAUCCAGAAUUCTT against Omd | inactive: -0.36

From no. 40 as far as 41, as listed above:
Row | Sequence | z-score
40 | GGCCAUCUUUGUUUAAAACTT against Ttc5 | inactive: 0.666
41 | GGACGUGUGCCAGACUAAATT against Egfl6 | inactive: -0.753
